PubChem BioAssay AID1259308, NCATS | 2017
Screen: 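Candidate targets for better recombinant protein yield in mammalian cells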 (primary screen). System: human HEK293 embryonic kidney cells stably expressing firefly luciferase (HEK-CMV-Luc2-Hygro). Reagents: single siRNA against human genes, 0.8 pmol siRNA per well. Time to read-out: 72 h. Measurement: 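Reporter luminescence and viable-cell signal on separate replicate plates, given as percent of non-targeting control and median/MAD z-scores, plus per-cell luciferase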. Reading the numbers: total luciferase, z-score: higher = more reporter protein produced. Active means: 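An siRNA counts as active if its total luciferase robust z-score exceeds 3; genes with two or more such siRNAs out of three were retested with fresh siRNAs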. Calls: active = raised luciferase; inactive = no rise.
In all, the deposit lists about 59,000 reagents; shown is a part drawn at random. About 1,510 of them (2.6%) count as active. 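Calls use total luciferase alone and ignore viability, so some active siRNAs may act by altering cell number.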 Reagents against one gene are numbered here. Not all columns of the deposit are shown.

gene	reagent no.	total luciferase, z-score	Call
PEA15-AS1	1	2.67	inactive
PEA15-AS1	2	0.21	inactive
PEA15-AS1	3	-2.39	inactive
ATP2C1	1	-0.954	inactive
ATP2C1	2	0.313	inactive
ATP2C1	3	0.459	inactive
PAX3	1	-0.242	inactive
PAX3	2	1.37	inactive
PAX3	3	-1.05	inactive
SEM1	1	1.09	inactive
SEM1	2	0.517	inactive
SEM1	3	1.02	inactive
SEM1	4	-0.0302	inactive
SEM1	5	-1.42	inactive
SEM1	6	0.593	inactive
TUT7	1	1.33	inactive
TUT7	2	1.94	inactive
TUT7	3	1.02	inactive
NCK1	1	-0.978	inactive
NCK1	2	-0.134	inactive
NCK1	3	-1.4	inactive
GRIA1	1	0.107	inactive
GRIA1	2	0.584	inactive
GRIA1	3	0.438	inactive
ZNF558	1	0.0371	inactive
ZNF558	2	1.71	inactive
ZNF558	3	2.67	inactive
RCC1	1	1.84	inactive
RCC1	2	1.55	inactive
RCC1	3	0.101	inactive
MNDA	1	-0.56	inactive
MNDA	2	-1.13	inactive
MNDA	3	-0.591	inactive
CRACDL	1	2.44	inactive
CRACDL	2	0.00141	inactive
CRACDL	3	-1.13	inactive
ITGA5	1	-1.29	inactive
ITGA5	2	0.52	inactive
ITGA5	3	-0.217	inactive
AMH	1	0.0745	inactive
AMH	2	-0.413	inactive
AMH	3	1.08	inactive
RSF1	1	0.588	inactive
RSF1	2	0.872	inactive
RSF1	3	-0.506	inactive
BEND3	1	0.382	inactive
BEND3	2	1.37	inactive
BEND3	3	0.444	inactive
AUNIP	1	-0.199	inactive
AUNIP	2	0.0801	inactive
AUNIP	3	-0.458	inactive
S100A3	1	0.217	inactive
S100A3	2	0.589	inactive
S100A3	3	1.07	inactive
PXK	1	0.141	inactive
PXK	2	1.9	inactive
PXK	3	2.45	inactive
